Experimental data taken from article PMC6369847 (International Journal of Nanomedicine, 2019).
In brackets after ≈: the same amount, converted by molar mass.

Tested on: A549 cells
Assay: Cytotoxicity test by MTT assay, A549
Assay type: cell-based
Settings: Homo sapiens, A549, 48 h

CC(=O)O[C@H]1C(=O)[C@@]2(C)[C@H]([C@H](OC(=O)c3ccccc3)[C@]3(O)C[C@H](OC(=O)[C@H](O)[C@@H](NC(=O)c4ccccc4)c4ccccc4)C(C)=C1C3(C)C)[C@]1(OC(C)=O)CO[C@@H]1C[C@@H]2O [PTX, Paclitaxel] was tested, and the IC50 was 1.26 µg/mL (≈ 1.48 µM).
